One molecule from patent US20230049529A1 can be followed below.

Chains of the proteins cited; added tags and fusions are not shown. Residues count along the entry.
UniProt Q02223, residues 1-54: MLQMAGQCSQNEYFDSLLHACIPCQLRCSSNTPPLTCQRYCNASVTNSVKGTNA

These are yes or no findings as the source states them, for the method shown. Some entries that bind do so weakly or less than the wild type.

The experiment addresses biotinylated Fc-BCMA (UniProt Q02223). Description: ELISA of phage display selected clones on Fc-BCMA. (ELISA stands for enzyme-linked immunosorbent assay.)

B1: VOO1 Fab (Fab, V domains shown)
VH: QEQLEESGGRLVTPGTPLTLTCTVSGFSLSNYHMSWVRQAPGKGLEWIGFITSGGSTYYASWAKGRFTISRTSTTVDLKITSPTTEDTATYFCARWNGYGGNMWGPGTLVTVSS
VL: DVVMTQTPSSVPAAVGGTVTINCQASQSIDSNLAWFQQKPGQPPNLLIYDASTLASGVPSRFKGSAGKQFTLTISGVQREDAATYYCLGSYSRTEKAFGAGTKVEIK
Take B1: the binding entry was “binds”.
